## Results of single-concentration screens

Sequences of proteins named here, by UniProt entry; tags and fusion partners are left off.
UniProt P9WNZ1, whole entry: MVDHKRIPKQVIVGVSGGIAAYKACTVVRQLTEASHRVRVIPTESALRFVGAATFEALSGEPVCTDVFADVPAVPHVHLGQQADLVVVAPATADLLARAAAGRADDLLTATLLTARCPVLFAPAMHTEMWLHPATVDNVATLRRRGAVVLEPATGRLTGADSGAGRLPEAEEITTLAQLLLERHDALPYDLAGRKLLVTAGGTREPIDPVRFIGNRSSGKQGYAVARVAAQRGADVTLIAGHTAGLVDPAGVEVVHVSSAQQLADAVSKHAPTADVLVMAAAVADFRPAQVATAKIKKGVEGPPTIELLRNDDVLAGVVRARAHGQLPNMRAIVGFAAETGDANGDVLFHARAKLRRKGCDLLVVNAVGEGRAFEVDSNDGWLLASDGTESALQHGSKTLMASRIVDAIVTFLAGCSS

From ChEMBL document CHEMBL3988442, “University of Dundee, Small-Polar-MMV Screening Library” (2021).

The filed quantity is “Percent Effect” (%). The record does not define 0% and 100%; most values in the screen are far below 50% and negative numbers occur (in some assays of this library far below -100). This is an unselected part of the compounds tested. Two or more numbers in one place are separate tests of the same structure; such repeats can differ widely. A dash means the value is not listed here; it may have been measured.

A: 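Enzyme assay of CoaBC with a phosphate dye (Biomol Green) read at 650 nm. Target: Coenzyme A biosynthesis protein CoaBC, Mycobacterium tuberculosis (UniProt P9WNZ1). Compounds at 30 µM. Direction is inferred from only a few compounds that gave an IC50; most scored high, so higher reads as stronger inhibition. Most strong results did not repeat in a second test. About 67,000 compounds were tested under these conditions; 0.06% (about 40) showed 50% or more at least once.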
B: 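Cell assay of Leishmania donovani living inside macrophages; the read-out is not stated. Compounds at 30 µM. The record gives no direction; compounds that gave an IC50 in retests scored well above the rest, so higher reads as stronger inhibition. About 69,000 compounds were tested under these conditions; 1.5% (about 1,000) showed 50% or more at least once.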

compound,A,B
Cn1cc(C2CCCN2C(=O)Cc2coc(-c3ccccc3)n2)cn1 (stereo unspecified),-3.776,20.21
CN1CCc2c(C#N)c(NCc3ccncc3)n3cnnc3c2C1,3.291,-7.539 & 21.46
COc1ccc(S(=O)(=O)N[C@H]2CN(C(C)=O)C[C@@H]2C(C)C)cc1F,1.566,9.73
O=C(CCc1c(F)cccc1F)N1CCCCC1Cn1cccn1 (stereo unspecified),3.916,-5.141
O=C(C1CCCO1)N1CCCn2c(nnc2Cn2cccn2)C1 (stereo unspecified),-,18.68
CNC(=O)[C@H]1C[C@@H]2CN(c3cc(OC)ncn3)C[C@@H]2N1C(C)C,-1.48,-
Cc1ccc(Oc2cc(CN)ccn2)cc1C,8.156,-
CC(NC(=O)CCCOc1ccccc1Cl)c1ccncc1 (stereo unspecified),-6.183,13.78
COc1c(CNCc2cccnc2N2CCCCC2)c(C)nn1C,5.008,18.23
CCc1cnc(CN(C(C)=O)C2CCN(CCc3cccs3)C2)o1 (stereo unspecified),6.177,11.94
CCN(Cc1ccccn1)C1CCN(c2ccccc2)C1=O (stereo unspecified),3.439,2.876
CN(CCc1ccccn1)Cc1nccn1Cc1ccccc1,11.06,13.75
CCS(=O)(=O)c1ccc2oc([C@H]3CCN(CC4CCCCC4)C3)nc2c1,-17.09,1.583
Cc1ccc2c(n1)N(CC1CC1)CCN(Cc1ccco1)C2,3.171,-
CC(C)NC(=O)c1nnn(-c2ccccc2)c1C1CC1,3.571,-14.29
Cc1cc(C(=O)N2CCc3ncc(CN4CCCC4)n3CC2)no1,3.202,-
CCn1cnnc1C1CCN(C(=O)c2cc(C)n(CC)c2C)CC1,7.097,-5.186
O=S1(=O)CCN2C(=N1)Oc1ccc(S(=O)(=O)N3CCCC3)cc12,-0.2532,2.9 & 13.34
Nc1cc(C(=O)NCC2CCN(CCc3ccccc3)C2)ccn1 (stereo unspecified),1.22,12.14
COc1cc(CNC(C)Cn2ccnc2)cc2c1OCCO2 (stereo unspecified),3.113,-19.14
CN1CCC(N(C)C(=O)CSc2ccc(F)c(F)c2)C1=O (stereo unspecified),7.579,27.4
O=C(c1cnc(Cc2c(Cl)cccc2Cl)nc1O)N1CCNCC1,6.612,-2.913
COc1ccc(OCC2CCCN(c3nc(CO)cs3)C2)cc1 (stereo unspecified),3.03,-36.68
Cc1ncc(CN2C[C@H]3C[C@H](OCc4ccccc4)C[C@H]3C2)cn1,6.083,-
CC(C)n1cc(CN2CCCN(C(=O)c3ccco3)CC2)cn1,5.868,10.5
CCN(CC)CC1CN(Cc2c(C)noc2C)Cc2nccn2C1 (stereo unspecified),-2.161,17.55
Cc1nccnc1N1C[C@H]2CN(C3CCOCC3)C[C@@]2(C(=O)O)C1,-4.232,-
O=C(NCC1CC1)C12CC(CN1Cc1nccs1)C2,-,13.42
COc1ccc2c(c1OC)Cc1c-2nc(N)c(C#N)c1C1CCOC1 (stereo unspecified),1.882,11.41
O=C(CN1CCCC(c2ccn[nH]2)C1)Nc1nc2c(s1)CCC2 (stereo unspecified),-0.2012,51.08
CC(=O)N1CCCC1(C)c1nc(C)no1 (stereo unspecified),1.314,31.31
O=C(O)C(F)(F)F.O=C(O)C(F)(F)F.[H][C@@]12OCCN(Cc3nccs3)[C@@]1([H])CC[C@@H]2OCc1ccccn1,-,-25.1
Cc1cc(NS(=O)(=O)c2cnc3onc(C)c3c2)no1,4.783,32.35
O=C(O)C(F)(F)F.O=C(O)C(F)(F)F.[H][C@@]12CN(Cc3ccc(C)s3)C[C@@]1([H])N(Cc1ccncc1)C(=O)CO2,-,15.08
Cc1nn(C)cc1C(=O)N1CCCC(n2nnc3cc(F)ccc32)C1 (stereo unspecified),-1.961,-6.346
CCS(=O)(=O)NC(CCSC)C(=O)Nc1cccc(C)c1C (stereo unspecified),-3.457,34.71
Cc1noc(C)c1CN1CCc2c(CNc3nccs3)n[nH]c2C1,9.524,-
CS(=O)(=O)Cc1nc(C2CC2)nn1-c1ccccn1,-,3.884
O=C(CCN1C[C@@H]2CC[C@H]1C2)N1CCN(c2cccc(Cl)c2)C(=O)C1,7.901,-
O=C(NC[C@H]1OC[C@@H](NCc2ccccc2F)[C@@H]1O)c1ccc(F)cc1,6.452,-0.6686
Cc1ncsc1CN1CCOC(C)(C(N)=O)C1 (stereo unspecified),5.701,-5.422
O=C(C1=CCCC1)N1C[C@H](Oc2cccnc2)[C@H]2OCCC[C@H]21,-2.692,-
Cc1ncc2c(n1)CN(Cc1nc(C)c(C)o1)CC2,6.53,4.522
O=C(O)C(F)(F)F.O=C(O)C(F)(F)F.O=C1CC[C@]2(CC[C@@H](NC3CCOC3)CC2)N1Cc1ccncc1 (stereo partly specified),-,4.35
COCC(=O)N1CCc2ncc(Cn3cncn3)n2CC1,2.75,37.6
COc1ccccc1OCCN1CCCCC1Cn1cncn1 (stereo unspecified),11.06,22.44
CCCC(C)(C)NC(=O)c1ccc(CC2CC(=O)NC2=O)cc1 (stereo unspecified),7.889,23.2
CN(C)C(=O)[C@H]1C[C@@H]2CCN(Cc3ccncc3)C[C@H]2O1,-7.143,-
[H][C@@]12OCCN(c3ncccn3)[C@@]1([H])CC[C@H]2OCCN1CCOCC1,-,3.262 & -11.57
CNC(=O)NC(=O)CN(Cc1ccc(C#N)cc1)Cc1cccc(F)c1,4.713,6.189
Cn1cccc1C(=O)N1CCCC2(CCN(CCN3CCCC3)C2=O)C1 (stereo unspecified),-22.27,-
CCS(=O)(=O)N1CCCC(c2ccnc(N(C)C)c2)C1 (stereo unspecified),-0.618,-4.294
CC(=O)N1CCC[C@@H](NCc2c[nH]c3ccccc23)[C@@H]1c1ccc(C)s1.Cl,-,47.11
Cn1ncc2ccc(C3CCCN(C(=O)Cc4cccs4)C3)nc21 (stereo unspecified),0.9569,2.276
CNc1cc(N2CCCC2CNCc2cccnc2)ncn1 (stereo unspecified),4.822,9.603
O=C(O)C(F)(F)F.[H][C@@]12OCCC[C@]1([H])N(S(=O)(=O)CCC)C[C@@H]2N(C)Cc1ccco1,-,27.5
CN(C)C1CCN(C(=O)NCc2ccccc2Cn2cncn2)CC1,5.33,24.37
O=c1[nH]c2nc(NCC3CCCO3)ncc2c(=O)n1-c1cccc(F)c1 (stereo unspecified),-0.1255,20.13
CC(C)N1CCO[C@@H]2CN(S(=O)(=O)c3cccs3)CC[C@@H]2C1,4.146,-
CCN1CC[C@@H]2OC[C@H](C(=O)NCc3cccs3)C[C@@H]2C1,2.222,-
CN1CCCN(C(=O)c2nc3c(o2)CN(S(C)(=O)=O)C3)CC1,1.485,18.31
Cc1ocnc1C(=O)N1CCN(CCOc2ccccc2)CC1,5.679,8.228
CC1CCN(CC(O)CNc2ccc(Cl)cn2)CC1 (stereo unspecified),-14.67,-60.44
O=C(NCCCF)Nc1ccc2nc(N3CCOCC3)oc2c1,5.925,5.028
COc1cc(C2CC(=O)Oc3cc(C)[nH]c(=O)c32)ccc1O (stereo unspecified),0.5089,10.07